Measured values from patent publication US5681816A, “Method of inducing temporary paralysis of the gastrointestinal tract during medical procedure” (priority 1994, dated 1997).
At least one peptide structure holds a part that was inferred or is arguable (an end, a ring closure or a residue).

Columns and labels:
[1] = test system: distal human colon; conditions: cited from earlier work
[2] = test system: guinea pig and rabbit small intestine, oat duodenum, and mouse colon; conditions: cited from earlier work
[3] = test system: gastric antral contractions; experiment: Upper gastrointestinal endoscopy, antral motility recorded on videotape; format: in vivo, human
[4] = test system: opossum duodenum; conditions: cited from earlier work

CC[C@H](C)[C@H](NC(=O)[C@H](CO)NC(=O)[C@H](CC(N)=O)NC(=O)[C@H](CC(C)C)NC(=O)[C@H](Cc1ccc(O)cc1)NC(=O)[C@H](CCCCN)NC(=O)[C@H](CCCCN)NC(=O)[C@@H](NC(=O)[C@H](C)NC(=O)[C@H](CCSC)NC(=O)[C@H](CCC(N)=O)NC(=O)[C@H](CCCCN)NC(=O)[C@H](CCCNC(=N)N)NC(=O)[C@H](CC(C)C)NC(=O)[C@H](CCCNC(=N)N)NC(=O)[C@@H](NC(=O)[C@H](Cc1ccc(O)cc1)NC(=O)[C@H](CC(N)=O)NC(=O)[C@H](CC(=O)O)NC(=O)[C@@H](NC(=O)[C@H](Cc1ccccc1)NC(=O)[C@@H](NC(=O)[C@H](C)NC(=O)[C@H](CC(=O)O)NC(=O)[C@H](CO)NC(=O)[C@@H](N)Cc1c[nH]cn1)C(C)C)[C@@H](C)O)[C@@H](C)O)C(C)C)C(=O)N[C@@H](CC(C)C)C(=O)N[C@@H](CC(N)=O)C(N)=O [VIP, vasoactive intestinal peptide]
circular muscle [1]: small relaxation | longitudinal muscle contractions [1]: did not relax | effect on layers of smooth muscle [2]: stimulated contractions | duration of paralytic effect ([3]; after injection of the appropriate dose (summary)): about seven | duration of decrease in contractions ([3]; first patient, 5 ng/kg): two | frequency of gastric antral contractions ([3]; first patient, 5 ng/kg VIP intravenous): small but significant decrease | antral contractions ([3]; first patient, additional dose of 20 ng VIP per kg bodyweight): completely abolished | number of contractions per 2 minute interval ([3]; first patient, after 5 ng VIP per kg bodyweight, average 8 before VIP): 4 contractions per 2 minute interval | number of contractions ([3]; second patient, 20 ng VIP/kg): barely affected | gastrointestinal motility ([3]; second patient, 100 ng/kg): significant reduction | gastrointestinal motility ([3]; second patient, 5 and 20 ng/kg): no significant effect | number of contractions per 2 minute interval ([3]; second patient, after first dose of 5 ng VIP per kg): 6 contractions per 2 minute interval | duration of decrease in motility ([3]; third patient, 0.3 μg/kg): seven | antral motility ([3]; third patient, 0.05, 0.02 and 0.1 μg/kg): no effect | effect on opossum duodenum [4]: stimulated contractions
